Test results reported in US11666575B2, “Pyrazolo[1,5]pyrimidine-based compounds and methods of their use to treat viral infections” (Lexicon Pharmaceuticals, Inc., priority 2020, dated 2023).
For at least one compound, name, drawing or mass did not settle the structure. Some entries share one result that the patent states for a list of compounds.

Assays:
[1] = tested on: HCoV-OC43; assay: OC43 CPE assay in Huh-7 cells (neutral red uptake); format: cell-based, Human coronavirus OC43
[2] = tested on: HCoV-OC43 (Betacoronavirus 1); format: cell-based; conditions: 6 days

Structure (SMILES) | antiviral effect at 30 μM ([1]; 30 μM, likely due to compound-induced toxicity) | antiviral effect against β-coronavirus OC43 in H292 cells [2] | inhibition of virus induced cytopathic effect ([1]; tested at 3.3 μM or 10 μM) [%]
CCN(CC)CCNC(=O)c1c(C)[nH]c(/C=C2\C(=O)Nc3ccc(F)cc32)c1C [Sunitinib] | disappeared | antiviral effect | –
COc1ncccc1-c1cnn2ccc(N3CCN(C(=O)OC4(C)COC4)CC3)nc12 [Compound 1, 3-methyloxetan-3-yl-4-(3-(2-methoxypyridin-3-yl)pyrazolo[1,5-a]pyrimidin-5-yl)piperazine-1-carboxylate] | – | – | 20 to 30
